This test addresses T1, HA-tagged TSC22D4 (UniProt Q9Y3Q8).
T1 sequence: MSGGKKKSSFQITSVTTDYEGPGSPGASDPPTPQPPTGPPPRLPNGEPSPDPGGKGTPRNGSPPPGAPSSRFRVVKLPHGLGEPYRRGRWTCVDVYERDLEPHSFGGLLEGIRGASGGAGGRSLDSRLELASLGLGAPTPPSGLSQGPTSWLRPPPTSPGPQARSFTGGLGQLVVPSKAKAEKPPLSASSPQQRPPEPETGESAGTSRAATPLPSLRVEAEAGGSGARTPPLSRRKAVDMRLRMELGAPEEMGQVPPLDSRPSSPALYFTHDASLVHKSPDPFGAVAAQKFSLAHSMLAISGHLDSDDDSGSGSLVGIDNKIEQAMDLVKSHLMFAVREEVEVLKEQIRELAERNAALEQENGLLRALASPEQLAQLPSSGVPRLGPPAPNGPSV
The test can be described thus: affinity purification with mass spectrometry.

Consider two molecules from publication doi:10.1101/2025.05.06.651509 (bioRxiv, 2025).

Results are given in words; binding and its absence hold for the method and conditions named. In cells and extracts the contact can be indirect. A yes stands for co-enrichment or nearness to the bait. Other partners may have been found. Where a sequence is shown, tags or fusion partners need not be part of it.

B1: AACS (enzyme, UniProt Q9D2R0 1-672)
chain: MSKLARLEREEIMECQVMWEPDSKKDTQMDRFRAAVGTACGLALGNYNDLYHWSVRSYMDFWAEFWKFSGIVYSRMYDEVVDTSKGIADVPEWFRGSRLNYAENLLRHKENDRVALYVAREGREEIVKVTFEELRQQVALFAAAMRKMGVKKGDRVVGYLPNSAHAVEAMLAAASIGAIWSSTSPDFGVNGVLDRFSQIQPKLIFSVEAVVYNGKEHGHLEKLQRVVKGLPDLQRVVLIPYVLPREKIDISKIPNSVFLDDFLASGTGAQAPQLEFEQLPFSHPLFIMFSSGTTGAPKCMVHSAGGTLIQHLKEHMLHGNMTSSDILLYYTTVGWMMWNWMVSALATGASLVLYDGSPLVPTPNVLWDLVDRIGITILGTGAKWLSVLEEKDMKPVETHNLHTLHTILSTGSPLKAQSYEYVYRCIKSSVLLGSISGGTDIISCFMGQNSSIPVYKGEIQARNLGMAVEAWDEEGKAVWGASGELVCTKPIPCQPTHFWNDENGSKYRKAYFSKFPGVWAHGDYCRINPKTGGIIMLGRSDGTLNPNGVRFGSSEIYNIVEAFDEVEDSLCVPQYNRDGEERVVLFLKMASGHTFQPDLVKRIRDAIRLGLSARHVPSLILETRGIPYTLNGKKVEVAVKQVMAGRTVEHRGAFSNPETLDLYRDIPELQDF
On to B1, for which the binding entry was “binds”.

B2: NRBP2 (protein, UniProt Q91V36 1-499)
chain: MAAPEPAPRRGREREREDESEDESDILEESPCGRWQKRREQVNQGNMPGIQSTFLAMDTEEGVEVVWNELHFGDRKAFAAHEEKIQTMFEQLALVDHPNIVKLHKYWLDASEARARVIFITEYVSSGSLKQFLKKTKKNHKAMNARAWKRWCTQILSALSFLHACSPPIIHGNLTSDTIFIQHNGLIKIGSVWYRIFSNALPDDLRSPIRAEREELRNLHFFPPEYGEVNDGTAVDIFSFGMCALEMAVLEIQANGDTRVTEEAIARARHSLSDPNMREFILSCLARDPARRPSAHNLLFHRVLFEVHSLKLLAAHCFIQHQYLMPENVVEEKTKAMDLHAVLAEMPQPHGPPMQWRYSEVSFLELDKFLEDVRNGIYPLMNFAAARPLGLPRVLAPPPEEAQKAKTPTPEPFDSETRKVVQMQCNLERSEDKARWHLTLLLVLEDRLHRQLTYDLLPTDSAQDLAAELVHYGFLHEDDRTKLAAFLETTFLKYRGTQA
Turning to B2, the binding result is “binds”.
